The source of these data is paper PMC12717039, “Novel mutations in the RECQL4 gene affect its helicase functions, interactions with the BLM helicase and chemotherapeutics-induced cell death”.

Positions count from the first letter of the chain named. For some of these results: A weaker result is weaker than the reference pair of the same experiment. Tags and fusion partners may be left off the protein sequences shown. For some of these results: Construct, isoform or probe ends are uncertain for at least one entry. For some of these results: At least one verdict was read from the data and is not stated in words by the source.

Data set [1] has as its target T1, RECQL4 427-1116 WT (Homo sapiens) (UniProt O94761).
T1 sequence (looked up): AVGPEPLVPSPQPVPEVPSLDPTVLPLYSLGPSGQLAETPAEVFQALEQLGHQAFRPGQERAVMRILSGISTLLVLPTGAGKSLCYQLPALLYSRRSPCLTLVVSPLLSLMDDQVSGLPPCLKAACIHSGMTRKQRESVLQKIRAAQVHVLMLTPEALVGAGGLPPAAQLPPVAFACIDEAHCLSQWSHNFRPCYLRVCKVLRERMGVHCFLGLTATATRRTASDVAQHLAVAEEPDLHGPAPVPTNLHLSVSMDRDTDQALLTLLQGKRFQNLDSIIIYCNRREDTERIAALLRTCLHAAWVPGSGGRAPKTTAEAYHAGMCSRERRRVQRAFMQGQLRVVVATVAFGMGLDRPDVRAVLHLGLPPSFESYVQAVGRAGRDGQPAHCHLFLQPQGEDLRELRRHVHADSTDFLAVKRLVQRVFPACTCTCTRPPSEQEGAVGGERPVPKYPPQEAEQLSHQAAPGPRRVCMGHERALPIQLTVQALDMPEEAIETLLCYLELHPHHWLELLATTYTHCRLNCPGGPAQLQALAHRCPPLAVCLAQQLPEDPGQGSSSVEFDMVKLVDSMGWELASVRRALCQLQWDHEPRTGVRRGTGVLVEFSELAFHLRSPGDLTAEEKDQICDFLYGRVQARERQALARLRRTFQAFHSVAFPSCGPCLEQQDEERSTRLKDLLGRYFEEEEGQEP
Briefly: EMSA. The following applies: 5 mM Mg2+, 0.1-10 uM protein, 100 nM DNA; Buffer D: 10 mM HEPES pH 7.5, 50 mM NaCl, 5 mM MgCl2, 2 mM DTT (EMSA, 100 nM Cy3-DNA, 6% native PAGE); temperature not stated; recombinant protein; residues 427-1116; protein details: GST tag removed by TEV. For orientation: In EMSA bound probe runs differently from free probe, usually more slowly.

Data set [2] addresses T2, RECQL4 427-1116 R766Q (Homo sapiens) (UniProt O94761).
T2 sequence (looked up): T1 sequence (looked up) with R340Q
The data set can be described thus: EMSA. The following applies: 5 mM Mg2+, 0.1-10 uM protein, 100 nM DNA; Buffer D: 10 mM HEPES pH 7.5, 50 mM NaCl, 5 mM MgCl2, 2 mM DTT (EMSA, 100 nM Cy3-DNA, 6% native PAGE); temperature not stated; recombinant protein; residues 427-1116; protein details: GST tag removed by TEV.

The target in data set [3] is T3, RECQL4 427-1116 P532S (Homo sapiens) (UniProt O94761).
T3 sequence (looked up): T1 sequence (looked up) with P106S
Briefly: EMSA. The following applies: 5 mM Mg2+, 0.1-10 uM protein, 100 nM DNA; Buffer D: 10 mM HEPES pH 7.5, 50 mM NaCl, 5 mM MgCl2, 2 mM DTT (EMSA, 100 nM Cy3-DNA, 6% native PAGE); temperature not stated; recombinant protein; residues 427-1116; protein details: GST tag removed by TEV.

The target in data set [4] is T2, RECQL4 427-1116 R766Q (Homo sapiens). Briefly: MST. The note with it: 5 mM Mg2+, no ATP mentioned, Kd only in figure; Buffer D: 10 mM HEPES pH 7.5, 50 mM NaCl, 5 mM MgCl2, 2 mM DTT (EMSA, 100 nM Cy3-DNA, 6% native PAGE); MST with 10 nM Cy5-DNA, buffer not restated; temperature not stated; recombinant protein; residues 427-1116; protein details: GST tag removed by TEV.

Turning to “CCATTCCACCCTCTATTTTTTTTTTTTTTT / TAGAGGGTGGAATGG [OH-Cy3/CQ dsDNA with 3' ss overhang (EMSA)]”, the binding result was “binds” in data set [1], “binds more weakly” in data set [2] and “binds” in data set [3].

Take “CCATTCCACCCTCTATTTTTTTTTTTTTTT / TAGAGGGTGGAATGG [OH-Cy5/CQ dsDNA with 3' ss overhang (MST)]”: the binding result in data set [4] is recorded as “binds more weakly”.
